In paper PMC5059862:
Results are given in words; binding and its absence hold for the method and conditions named. Binding seen in cells or lysates may run through a third protein. Some results given as binding are weak or reduced against the parent protein; the word gives no strength. For some assays here: Tags and fused reporters may be left off the sequences shown. Blank lines part the entries; values can stand above or below the binder they belong to.

Sequences of proteins named here, by UniProt entry; tags and fusion partners are left off.
UniProt P10361: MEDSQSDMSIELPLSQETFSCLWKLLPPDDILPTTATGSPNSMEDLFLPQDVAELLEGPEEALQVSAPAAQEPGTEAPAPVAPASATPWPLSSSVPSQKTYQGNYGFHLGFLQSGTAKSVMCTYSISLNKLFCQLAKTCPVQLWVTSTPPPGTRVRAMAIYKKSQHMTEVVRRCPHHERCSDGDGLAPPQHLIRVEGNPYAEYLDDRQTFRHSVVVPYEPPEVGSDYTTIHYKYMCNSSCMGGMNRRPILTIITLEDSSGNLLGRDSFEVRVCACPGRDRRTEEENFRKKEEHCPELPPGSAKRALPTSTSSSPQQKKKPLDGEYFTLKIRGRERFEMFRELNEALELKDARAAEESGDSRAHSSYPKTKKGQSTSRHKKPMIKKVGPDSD

What was measured:
[1] = molecular target: p53, endogenous in primary cultured rat neurons (rat (endogenous in primary cultured cortical neurons)) (UniProt P10361); test: co-IP; endogenous proteins of primary cultured rat neurons treated without or with OGD/R, subcellular location of the interaction examined; lysates incubated with anti-p53 antibody overnight at 4 °C, protein A/G PLUS-Agarose beads
[2] = molecular target: p53-GFP (p53, GFP-tagged, from pEGFP-p53) (UniProt P04637); test: co-IP; HEK293 cells transfected with pcDNA-ANXA1 (His-tagged) and pEGFP-p53 (GFP-tagged), treated without or with OGD/R; lysates (20 mM HEPES, 400 mM KCl, 5% glycerol, 5 mM EDTA, 0.4% NP-40) incubated with anti-GFP antibody overnight at 4 °C, protein A/G PLUS-Agarose beads

binding [1]: binds
B1: annexin 1 (ANXA1), endogenous in primary cultured rat neurons (protein, UniProt P07150 1-346)
chain: MAMVSEFLKQACYIEKQEQEYVQAVKSYKGGPGSAVSPYPSFNPSSDVAALHKAIMVKGVDEATIIDILTKRTNAQRQQIKAAYLQETGKPLDETLKKALTGHLEEVVLAMLKTPAQFDADELRAAMKGLGTDEDTLIEILTTRSNQQIREITRVYREELKRDLAKDITSDTSGDFRNALLALAKGDRCEDMSVNQDLADTDARALYEAGERRKGTDVNVFNTILTTRSYPHLRKVFQNYRKYSQHDMNKALDLELKGDIEKCLTTIVKCATSTPAFFAEKLYEAMKGAGTRHKTLIRIMVSRSEIDMNEIKVFYQKKYGIPLCQAILDETKGDYEKILVALCGGN

binding [2]: binds
B2: ANXA1-His (annexin 1, His-tagged, from pcDNA-ANXA1) (protein, UniProt P04083 1-346)
chain: MAMVSEFLKQAWFIENEEQEYVQTVKSSKGGPGSAVSPYPTFNPSSDVAALHKAIMVKGVDEATIIDILTKRNNAQRQQIKAAYLQETGKPLDETLKKALTGHLEEVVLALLKTPAQFDADELRAAMKGLGTDEDTLIEILASRTNKEIRDINRVYREELKRDLAKDITSDTSGDFRNALLSLAKGDRSEDFGVNEDLADSDARALYEAGERRKGTDVNVFNTILTTRSYPQLRRVFQKYTKYSKHDMNKVLDLELKGDIEKCLTAIVKCATSKPAFFAEKLHQAMKGVGTRHKALIRIMVSRSEIDMNDIKAFYQKMYGISLCQAILDETKGDYEKILVALCGGN
